Laboratory results reported in publication PMC4928127, “Determination of GLUT1 Oligomerization Parameters using Bioluminescent Förster Resonance Energy Transfer” (Scientific Reports, 2016).
No constants are given. Whether binding was seen depends on the method and setting. In cells and extracts the contact can be indirect. Sequences can lack the tags named with a protein.

How the values were obtained:
[1] = target: T1, GLUT1-Nluc (mouse) (UniProt P17809); experiment: FRET or BRET; saturation BRET in live 293FT cells: fixed amount of Nluc donor fusion, increasing amounts of mCherry acceptor fusion, transient transfection; corrected BRET against acceptor:donor plasmid ratio, fit to standard binding curves
T1 sequence: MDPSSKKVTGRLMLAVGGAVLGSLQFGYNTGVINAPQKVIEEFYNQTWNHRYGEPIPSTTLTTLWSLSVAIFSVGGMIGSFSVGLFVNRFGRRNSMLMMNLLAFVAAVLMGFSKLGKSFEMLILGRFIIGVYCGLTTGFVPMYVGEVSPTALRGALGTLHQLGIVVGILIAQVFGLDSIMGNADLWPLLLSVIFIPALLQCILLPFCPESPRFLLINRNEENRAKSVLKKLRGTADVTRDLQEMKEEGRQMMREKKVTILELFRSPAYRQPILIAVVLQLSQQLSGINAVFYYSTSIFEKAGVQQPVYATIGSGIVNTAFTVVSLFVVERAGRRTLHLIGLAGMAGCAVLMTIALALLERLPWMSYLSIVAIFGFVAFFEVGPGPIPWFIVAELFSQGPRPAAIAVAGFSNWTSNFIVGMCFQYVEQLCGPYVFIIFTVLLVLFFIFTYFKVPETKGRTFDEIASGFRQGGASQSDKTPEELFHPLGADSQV

[2] = target: T2, Nluc-GLUT1 (mouse, UniProt P17809 1-492); experiment: as above
T2 construct: facilitated glucose transporter GLUT1 (SLC2A1), mouse Glut1 open reading frame; BRET donor; also called GLUT1 fused to Nluc at the N-terminus; not shown: Nanoluciferase (Nluc), N-terminal, kept
T2 sequence (looked up): T1 sequence

binding [1]: no binding
binding [2]: no binding
Substance: CD44-mCherry
